Binding data for eleven molecules are collected here from PMC7326492 (eLife, 2020).

Protein sequences, listed by entry. Tags and fused reporters are not part of them. Residues count along the entry.
UniProt P22004, residues 375-513: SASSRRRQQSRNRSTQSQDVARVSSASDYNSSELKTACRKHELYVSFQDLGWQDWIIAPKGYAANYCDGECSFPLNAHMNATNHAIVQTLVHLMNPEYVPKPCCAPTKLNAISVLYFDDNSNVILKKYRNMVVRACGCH

These are yes or no findings as the source states them, for the method shown. For part of these data: Binding seen in cells or lysates may run through a third protein. Some results given as binding are weak or reduced against the parent protein; the word gives no strength. For part of these data: Sequences can lack the tags named with a protein.

Assay [1] addresses T1, ACVR1-Fc (UniProt Q04771).
T1 sequence: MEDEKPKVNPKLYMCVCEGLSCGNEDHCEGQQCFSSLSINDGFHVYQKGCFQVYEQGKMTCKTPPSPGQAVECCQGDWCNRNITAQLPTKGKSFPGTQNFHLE
Kind of assay: SPR; complexes of ligand•type II receptor extracellular domain formed at 1:2.5 ratio and injected over captured ACVR1B-Fc and ACVR1-Fc; both purified.

The target in assay [2] is T1, ACVR1-Fc. Kind of assay: SPR; 1000 RU of either ACVR1B-Fc or ACVR1-Fc captured on a sensor chip; ligands injected at 80 nM (A) or 1 μM (B); both purified.
In the next assay the target is T2, ACVR1 (UniProt Q04771).
T2 sequence: T1 sequence
Kind of assay: split reporter; U2OS cells (DiscoverX) expressing split beta-galactosidase fusions of a type I and a type II receptor; dose response of ligand, 16 hr; luminescence, read by the paper as type I receptor binding of the ligand; only the binder purified.

A further assay concerns the target T3, TGFBR1 (UniProt P36897).
T3 sequence: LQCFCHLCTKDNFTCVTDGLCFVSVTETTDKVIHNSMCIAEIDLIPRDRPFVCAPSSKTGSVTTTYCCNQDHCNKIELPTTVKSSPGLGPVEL
The assay is described as above.

A further assay deals with T4, ACVR1-Fc, Q04771.
T4 chain: T1 sequence
Kind of assay: SPR; 1000 RU of either ACVR1B-Fc or ACVR1-Fc captured on a sensor chip; ligands injected at 80 nM (A) or 1 μM (B); both purified. The conditions noted are these: remark: other sources report otherwise.

The next assay addresses T5, TGFBR1, P36897.
T5 chain: T3 sequence
The experiment in a line: split reporter; U2OS cells (DiscoverX) expressing split beta-galactosidase fusions of a type I and a type II receptor; dose response of ligand, 16 hr; luminescence, read by the paper as type I receptor binding of the ligand; only the binder purified. The settings on record: remark: other sources report otherwise.

In the case of “Activin A•ACVR2B (from UniProt P08476 311-426; Q13705 19-137) (complex)”, the binding result with ACVR1-Fc [1] is “no binding”.

As for “Activin A•BMPR2 (from UniProt P08476 311-426; Q13873 27-150) (complex)”, the binding result with ACVR1-Fc [1] is on record as “no binding”.

Turning to “Activin A•ACVR2A (from UniProt P08476 311-426; P27037 20-135) (complex)”, in the assay with ACVR1-Fc [1], the binding entry is given as “no binding”.

Take “BMP6 (from UniProt P22004 375-513) (ligand)”: in the assay with ACVR1-Fc [2], the binding result was “binds”.

B1: Activin A.∆D406 (ligand, human, UniProt P08476 311-426, looked up)
chain: GLECDGKVNICCKKQFFVSFKDIGWNDWIIAPSGYHANYCEGECPSHIAGTSGSSLSFHSTVINHYRMRGHSPFANLKSCCVPTKLRPMSMLYYDGQNIIKKDIQNMIVEECGCS
notes: also called ActA.ΔD406; source: CHO-K1 cells expressing human Furin, stably expressed, purified (heparin, size exclusion, C4 reverse phase)
Consider B1, for which the binding result was “binds weakly” with ACVR1 and “binds” in the assay with TGFBR1.

B2: BMP7, P18075 293-431 (ligand)
chain: STGSKQRSQNRSKTPKNQEALRMANVAENSSSDQRQACKKHELYVSFRDLGWQDWIIAPEGYAAYYCEGECAFPLNSYMNATNHAIVQTLVHFINPETVPKPCCAPTQLNAISVLYFDDSSNVILKKYRNMVVRACGCH
Turning to B2, in the assay with ACVR1-Fc, Q04771, the binding result is “binds”.

B3: BMP10 (ligand, UniProt O95393 317-424)
chain: NAKGNYCKRTPLYIDFKEIGWDSWIIAPPGYEAYECRGVCNYPLAEHLTPTKHAIIQALVHLKNSQKASKACCVPTKLEPISILYLDKGVVTYKFKYEGMAVSECGCR
In the case of B3, the binding entry with ACVR1-Fc [2] is “no binding (tested: 80 nM (A) or 1 μM (B))”.

B4: BMP9, Q9UK05 320-429 (ligand)
chain: SAGAGSHCQKTSLRVNFEDIGWDSWIIAPKEYEAYECKGGCFFPLADDVTPTKHAIVQTLVHLKFPTKVGKACCVPTKLSPISVLYKDDMGVPTLKYHYEGMSVAECGCR
In the case of B4, the binding entry with ACVR1-Fc, Q04771 was “binds”.

B5: Activin B (ligand, UniProt P09529 293-407)
chain: GLECDGRTNLCCRQQFFIDFRLIGWNDWIIAPTGYYGNYCEGSCPAYLAGVPGSASSFHTAVVNQYRMRGLNPGTVNSCCIPTKLSTMSMLYFDDEYNIVKRDVPNMIVEECGCA
On to B5, for which, in the assay with ACVR1-Fc [2], the binding entry was “no binding (tested: 80 nM (A) or 1 μM (B))”.

B6: BMP4 (ligand, UniProt P12644 293-408)
chain: SPKHHSQRARKKNKNCRRHSLYVDFSDVGWNDWIVAPPGYQAFYCHGDCPFPLADHLNSTNHAIVQTLVNSVNSSIPKACCVPTELSAISMLYLDEYDKVVLKNYQEMVVEGCGCR
B6: the binding entry in the assay with ACVR1-Fc [2] is given as “no binding (tested: 80 nM (A) or 1 μM (B))”.

B7: Activin A (ligand, human, UniProt P08476 311-426, looked up)
chain: GLECDGKVNICCKKQFFVSFKDIGWNDWIIAPSGYHANYCEGECPSHIAGTSGSSLSFHSTVINHYRMRGHSPFANLKSCCVPTKLRPMSMLYYDDGQNIIKKDIQNMIVEECGCS
notes: Activin A (inhibin beta A chain), human, mature region cloned downstream of the mouse Inhba pro-peptide; the mature dimer was isolated; rhActivin A from R and D Systems is named only for the in vivo implants; also called wild-type Activin A; Activin A WT; source: CHO-K1 cells expressing human Furin, stably expressed, purified (heparin, size exclusion, C4 reverse phase)
Turning to B7, in the assay with TGFBR1, P36897, the binding entry is recorded as “binds”.
